From PubChem BioAssay AID662 (National Center for Advancing Translational Sciences (NCATS), 2007)
Values joined by “and” are separate entries in the source; they are usually repeats but may differ in a detail not shown here. Equal entries are not always repeated. Some of the results follow. Shown are side measurements of this screen, not its main read-out; they come without a call. Compounds called inactive in the main read-out are mostly missing here. The note in brackets gives the kind of curve behind each potency; many fits are weak.

test: Cell signaling CRE-BLA (Fsk stim); details: CHO CRE-bla reporter (cAMP response element driving beta-lactamase), forskolin EC10, beta-lactamase ratio; measured here: 460 nm blue channel
Summary of the method: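 CRE-bla CHO cells stimulated with EC10 NKH 477 (water-soluble forskolin) and compound titrations, 3 h at 37C; beta-lactamase read with CCF4 after 2 h at room temperature. Activity from 460/530 nm emission ratio, AC50 values for positive or negative modulation.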

| Structure (SMILES) | AC50 |
| --- | --- |
| COc1cccc(Cn2c(=O)c(-c3ccccc3)nc3cnc(OC)nc32)c1 | 10 µM [rising, partial curve] |
| CCCCCOC(=O)C1=C(C)NC(=O)NC1c1ccccc1OCC (stereo not drawn) | 12.6 µM [rising, single point] |
| CCOC(=O)c1ccc(-n2c(=S)sc3c(=O)[nH]c(C)nc32)cc1 | 12.6 µM [falling, partial curve] |
| CCCn1c(SCCc2ccccc2)nc2c1c(=O)[nH]c(=O)n2C | 10 µM [rising, partial curve] |
| Cc1cc(NC(=O)CN2CC3CC(C2)c2cccc(=O)n2C3)nc2c1c(=O)oc1ccccc12 (stereo not drawn) | 12.6 µM [rising, single point] |
| Cc1cc(C(=O)O)ccc1[C@H](N)C(=O)O | 1.26 µM [falling, full curve] |
| Cc1ccc(S(=O)(=O)c2c(C)nn(C(C)(C)C)c2OC(=O)c2ccc(Br)o2)cc1 | 3.98 µM [falling, full curve] |
| COc1ccc(CCNC(=O)c2ccn[nH]2)cc1OC | 10 µM [rising, partial curve] |
| CC1CC(C)CN(C(=O)CSc2nnc(-c3ccc(Cl)s3)o2)C1 (stereo not drawn) | 10 µM [rising, single point] |
| COc1ccccc1N1CCN(C(=O)C2c3ccccc3Oc3ccccc32)CC1 | 12.6 µM [rising, partial curve] |
| O=c1c(-c2cccs2)nc2cncnc2n1Cc1ccc(F)cc1 | 0.631 µM [rising, single point] |
| O=C(c1c(Cl)nc2sccn12)N1CCN(c2cccc(Cl)c2)CC1 | 20 µM [rising, single point] |
| Cc1cc(C)nc(-n2nc(C)cc2NC(=O)CN2CCC(C)CC2)n1 | 10 µM [rising, partial curve] |
| O=C(Cn1nnc(-c2ccccc2NC(=O)c2ccco2)n1)Nc1ccccc1 | 12.6 µM [rising, partial curve] |
| O=C(CCS(=O)(=O)c1cccc2nonc12)N1CCOCC1 | 0.0158 µM [falling, full curve] |
| COc1ccc(-c2cc(C(F)(F)F)nc(NCc3ccco3)n2)cc1OC | 1.58 µM [rising, full curve] |
| O=C(Nc1ccc(S(=O)(=O)NCc2ccco2)cc1)c1ccc2ccccc2n1 | 0.0794 µM [falling, full curve, poor fit] |
| CCOC(=O)c1[nH]c(CSc2nnc(-c3ccncc3)n2CCOC)c(C(=O)OCC)c1C | 15.8 µM [rising, single point] |
| Cc1sc2ncnc(Sc3nnnn3-c3ccc(Cl)cc3)c2c1C | 3.98 µM [falling, full curve] |
| CCOC(=O)C1CCN(c2ncnc3nc[nH]c23)CC1 | 5.01 µM [rising, single point] |
| CN1CCC(=C2c3ccccc3C=Cc3ccccc32)CC1 | 31.6 µM [falling, single point] |
| CCCc1cc(=O)[nH]c(Nc2cc(OC)ccc2OC)n1 | 20 µM [rising, single point] |
| O=C(O)CCSCC(=O)Nc1c(C(=O)C2CC2)oc2ccccc12 | 12.6 µM [rising, partial curve, poor fit] |

14 successive compounds out of the list so far, quoted:

| Structure (SMILES) | AC50 |
| --- | --- |
| CCCCCOC(=O)C1=C(C)NC(=O)NC1c1ccccc1OCC (stereo not drawn) | 12.6 µM [rising, single point] |
| CCOC(=O)c1ccc(-n2c(=S)sc3c(=O)[nH]c(C)nc32)cc1 | 12.6 µM [falling, partial curve] |
| CCCn1c(SCCc2ccccc2)nc2c1c(=O)[nH]c(=O)n2C | 10 µM [rising, partial curve] |
| Cc1cc(NC(=O)CN2CC3CC(C2)c2cccc(=O)n2C3)nc2c1c(=O)oc1ccccc12 (stereo not drawn) | 12.6 µM [rising, single point] |
| Cc1cc(C(=O)O)ccc1[C@H](N)C(=O)O | 1.26 µM [falling, full curve] |
| Cc1ccc(S(=O)(=O)c2c(C)nn(C(C)(C)C)c2OC(=O)c2ccc(Br)o2)cc1 | 3.98 µM [falling, full curve] |
| COc1ccc(CCNC(=O)c2ccn[nH]2)cc1OC | 10 µM [rising, partial curve] |
| CC1CC(C)CN(C(=O)CSc2nnc(-c3ccc(Cl)s3)o2)C1 (stereo not drawn) | 10 µM [rising, single point] |
| COc1ccccc1N1CCN(C(=O)C2c3ccccc3Oc3ccccc32)CC1 | 12.6 µM [rising, partial curve] |
| O=c1c(-c2cccs2)nc2cncnc2n1Cc1ccc(F)cc1 | 0.631 µM [rising, single point] |
| O=C(c1c(Cl)nc2sccn12)N1CCN(c2cccc(Cl)c2)CC1 | 20 µM [rising, single point] |
| Cc1cc(C)nc(-n2nc(C)cc2NC(=O)CN2CCC(C)CC2)n1 | 10 µM [rising, partial curve] |
| O=C(Cn1nnc(-c2ccccc2NC(=O)c2ccco2)n1)Nc1ccccc1 | 12.6 µM [rising, partial curve] |
| O=C(CCS(=O)(=O)c1cccc2nonc12)N1CCOCC1 | 0.0158 µM [falling, full curve] |

(cont.)

| Structure (SMILES) | AC50 |
| --- | --- |
| CCCNC[C@H](O)COc1ccccc1C(=O)CCc1ccccc1 | 12.6 µM [falling, single point] |
| CN(C)C(CNC(=O)CCCc1c[nH]c2ccccc12)c1ccco1 (stereo not drawn) | 0.00316 µM [falling, full curve, poor fit] |
| N#Cc1c(-c2ccccc2)no[n+]1[O-] | 15.8 µM [falling, partial curve] |
| COc1ccc(C2NCCc3cc(OC)c(OC)cc32)cc1OC (stereo not drawn) | 12.6 µM [rising, partial curve] |
| Cn1cc(S(=O)(=O)NCc2cccs2)c(=O)n(C)c1=O | 12.6 µM [rising, partial curve] |
| CCNc1ncc2nc(-c3ccc(OC)cc3)c(=O)n(C[C@H]3CCCO3)c2n1 | 3.98 µM [rising, partial curve] |
| CCn1c(=O)c2[nH]c(-c3ccccc3)nc2n(CC)c1=O | 5.01 µM [rising, partial curve] |
| COC(=O)C(CCSC)NC(=O)CNC(=O)C1CCCCC1 (stereo not drawn) | 0.316 µM [falling, single point] |
| COc1ccc(CCC(=O)N2CCN(C3CCCCC3)CC2)cc1 | 0.00631 µM [falling, full curve, poor fit] |
| Cc1cc(NC(=O)CSc2nnc(-c3ccc(Cl)s3)o2)no1 | 0.2 µM [falling, partial curve] |
| CN1CCN(c2ncc3nc(-c4cccs4)c(=O)n(C[C@H]4CCCO4)c3n2)CC1 | 10 µM [rising, partial curve] |
| CCc1c2c(nc3cccc(C(C)C)c13)-c1cccc(=O)n1C2 | 10 µM [rising, partial curve] |
| CCCCCn1c(CN2CCN(c3cc(Cl)ccc3C)CC2)nc2c1c(=O)[nH]c(=O)n2C | 6.31 µM [rising, partial curve] |
| CCOc1ccc(-c2nc(C#N)c(NCc3ccc4c(c3)OCO4)o2)cc1 | 7.94 µM [rising, partial curve] |
| COc1cc(=O)n(C)c2cc(N(C)C)ccc12 | 15.8 µM [rising, single point] |
| CCOc1cc2[nH]c(=O)n(CC3CCC(C(=O)NC(C)CC)CC3)c(=O)c2cc1OCC (stereo not drawn) | 0.794 µM [rising, full curve] |
| COc1ccc(-n2c(=O)c(-c3ccccc3)nc3cnc(N4CCNCC4)nc32)cc1 | 10 µM [rising, partial curve] |
| O=S(=O)(c1cccc(F)c1)N1CCN(Cc2ccc3c(c2)OCO3)CC1 | 15.8 µM [rising, single point] |
| CC(=O)Nc1cccc2c1C(=O)NC2=O | 0.1 µM [falling, full curve, poor fit] |
| COc1ccc(-c2nc3cnc(N4CCOCC4)nc3n(-c3ccccc3)c2=O)cc1 | 0.398 µM [rising, full curve] |
| Cc1onc(-c2ccccc2Cl)c1C(=O)NCCN1Cc2ccccc2C1=O | 0.00794 µM [falling, full curve] |
| CS(=O)(=O)Nc1cccc(-c2ccc3ncnc(Nc4ccc(F)cc4)c3c2)c1 | 12.6 µM [rising, partial curve] |
| COc1ccccc1-c1nc(NCc2cccs2)c2ccccc2n1 | 12.6 µM [rising, partial curve] |

| Structure (SMILES) | AC50 |
| --- | --- |
| COc1ccc(-n2c(SCC#N)nc3ccccc3c2=O)cc1 | 10 µM [rising, single point] |
| COc1ccccc1S(=O)(=O)n1cc(Cc2ccccc2)c(N)n1 | 0.631 µM [rising, single point] |
| CCCC1=C(C(=O)OCC)C(c2cc(Cl)cc(OC)c2OCC(=O)OCC)NC(=O)N1 (stereo not drawn) | 10 µM [rising, single point] |
| Cc1cc(C2=CC(C)(c3cc(C)oc3C)Nc3nc(C(F)(F)F)nn32)c(C)o1 (stereo not drawn) | 20 µM [falling, single point] |
| c1ccc(-c2nc(-n3ccnc3)nc(-n3ccnc3)n2)cc1 | 1.58 µM [rising, partial curve] |
| O=C(Nc1cccc(F)c1)N1CC2(CCN(C(=O)c3cnccn3)CC2)C1 | 10 µM [falling, single point] |
| CCOC(=O)Cn1c(=NC(=O)CSC(C)=O)sc2cc(OC)ccc21 | 0.501 µM [falling, full curve] |
| Cc1cc(-c2ccccc2)nc2[n+]1CCN2C | 5.01 µM [falling, single point] |
| OC1(c2cccc(C(F)(F)F)c2)CCN(c2ncnc3c2[nH]c2ccc(F)cc23)CC1 | 25.1 µM [falling, single point] |
| CC1(C)CC(=O)C(C=Nc2ccc(O)cc2)=C(O)C1 | 0.2 µM [falling, full curve] |
| Cc1cccc(-c2nnc(SCc3nc4ccccc4[nH]3)n2Cc2ccco2)c1 | 10 µM [rising, partial curve] |
| C=CCn1c(NC(=O)c2ccccc2Cl)c(C#N)c2nc3ccccc3nc21 | 5.01 µM [rising, partial curve] |
| Oc1c(C(c2cccs2)N2CCN(c3cccc(Cl)c3)CC2)sc2ncnn12 (stereo not drawn) | 12.6 µM [rising, partial curve] |
| Cc1cc(NC(=O)CSc2nc(-c3cccs3)cc(C(F)(F)F)n2)no1 | 3.16 µM [rising, full curve] |
| CCC(C)(C(=O)NC1CCCC1)N(Cc1ccco1)C(=O)c1ccccn1 (stereo not drawn) | 12.6 µM [falling, partial curve, poor fit] |
| Oc1ccc(/C=C\c2cc(O)cc(O)c2)cc1 | 15.8 µM [falling, partial curve, poor fit] and 15.8 µM [falling, partial curve] |
| CCOc1ccccc1-c1nc(-c2cc3ccccc3nc2OC)no1 | 10 µM [rising, partial curve] |
| COc1ccccc1CNc1ncnc2ccc(-c3cccc(NS(C)(=O)=O)c3)cc12 | 10 µM [rising, partial curve] |
| COc1cccc(-c2nc(NCCNC(C)=O)c3ccccc3n2)c1 | 15.8 µM [rising, partial curve] |
| CCOC(=O)c1cc2c(=O)n3ccccc3nc2n(CCOC)c1=NC(=O)C(C)(C)C | 10 µM [rising, partial curve] |
| CCOC(=O)c1sc(NC(=O)CCSC)nc1C | 12.6 µM [rising, partial curve] |
| CCOC(=O)c1c(CC(C)C)csc1NC(C)=O | 15.8 µM [rising, single point] |
